Experimental data published in patent publication US20080311111A1.
These are yes or no findings as the source states them, for the method shown. Some entries that bind do so weakly or less than the wild type.

Protein sequences, listed by entry. Tags and fused reporters are not part of them. Lines headed by an entry give the natural chain unless they say otherwise; changes in a name come on top. Residues count along the entry.
UniProt P14778: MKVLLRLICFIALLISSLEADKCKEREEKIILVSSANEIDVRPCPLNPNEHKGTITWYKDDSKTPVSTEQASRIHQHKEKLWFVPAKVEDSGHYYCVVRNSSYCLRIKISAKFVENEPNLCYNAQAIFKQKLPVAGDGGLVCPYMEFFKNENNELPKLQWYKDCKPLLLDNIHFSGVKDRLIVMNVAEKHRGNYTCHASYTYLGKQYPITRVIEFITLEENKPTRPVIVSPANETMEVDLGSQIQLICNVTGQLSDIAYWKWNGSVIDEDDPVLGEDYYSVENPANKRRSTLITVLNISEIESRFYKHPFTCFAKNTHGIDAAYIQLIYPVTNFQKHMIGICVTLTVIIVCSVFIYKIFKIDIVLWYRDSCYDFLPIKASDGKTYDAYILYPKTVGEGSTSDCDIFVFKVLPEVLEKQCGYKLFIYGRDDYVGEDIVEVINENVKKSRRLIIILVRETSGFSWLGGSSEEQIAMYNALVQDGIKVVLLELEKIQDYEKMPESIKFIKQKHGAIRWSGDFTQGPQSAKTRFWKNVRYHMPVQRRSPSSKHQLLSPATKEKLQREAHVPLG
IL-1R1-Fc fusion protein (Axxora): residues 18-336 of P14778
recombinant IL-1R1 (R&D Systems): residues 18-332 of P14778

Legend:
[1] = molecular target: recombinant IL-1R1 (R&D Systems) (UniProt P14778); assay: SPR off-rate screening of expression supernatants on IL-1R1 CM5 chip
[2] = molecular target: IL-1R1-Fc fusion protein (Axxora) (UniProt P14778); assay: competition ELISA, IL-1R1 coated plate, competitor 500 pM IL-1ra
[3] = molecular target: IL-1R1-Fc fusion protein (Axxora) (UniProt P14778); assay: competition ELISA, IL-1R1-Fc coated, competitor 500 pM IL-1ra
[4] = molecular target: recombinant IL-1R1 (R&D Systems) (UniProt P14778); assay: supernatant receptor binding assay, IL-1R1 captured on ELISA plate, competitor IL-1β

Row | binding [1] | binding [2] | binding [3] | binding [4] | Binder
1 | binds | – | – | – | DOM4-130-46 (protein) VL: DIQMTQSPSSLSASVGDRVTITCRASQDIYLNLDWYQQKPGKAPKLLINFGSELQSGVPSRFSGSGSGTDFTLTISSLQPEDFATYYCQPSFYFPYTFGQGTKVEIRR
2 | binds | binds | binds | – | DOM4-130-3 (protein) VL: DIQMTQSPSSLSASVGDRVTITCRASQDIYLNLDWYQQKPGKAPKLLIYGTSNLQSGVPSRFSGSGSGTDFTLTISSLQPEDFATYYCQPSFYFPYTFGQGTKVEIRR
3 | – | – | – | binds | DOM4-130 (protein) VL: DIQMTQSPSSLSASVGDRVTITCRASQDIYLNLNWYQQKPGKAPKLLIYGTSNLQSGVPSRFSGSGSGTDFTLTISSLQPEDFATYYCQPSFLYPYTFGQGTKVEIRR
